Data: publication PMC3959197
No constants are given. Whether binding was seen depends on the method and setting. Binding seen in cells or lysates may run through a third protein. Some entries that bind do so weakly or less than the wild type.

Columns and labels:
[1] = target: T1, Drosophila MyD88 (Drosophila) (UniProt Q7K105); test: co-IP; co-immunoprecipitation of Pellino S/T-to-A mutants with MyD88 (Supplementary Fig. 9b); beads and tags not told
T1 sequence: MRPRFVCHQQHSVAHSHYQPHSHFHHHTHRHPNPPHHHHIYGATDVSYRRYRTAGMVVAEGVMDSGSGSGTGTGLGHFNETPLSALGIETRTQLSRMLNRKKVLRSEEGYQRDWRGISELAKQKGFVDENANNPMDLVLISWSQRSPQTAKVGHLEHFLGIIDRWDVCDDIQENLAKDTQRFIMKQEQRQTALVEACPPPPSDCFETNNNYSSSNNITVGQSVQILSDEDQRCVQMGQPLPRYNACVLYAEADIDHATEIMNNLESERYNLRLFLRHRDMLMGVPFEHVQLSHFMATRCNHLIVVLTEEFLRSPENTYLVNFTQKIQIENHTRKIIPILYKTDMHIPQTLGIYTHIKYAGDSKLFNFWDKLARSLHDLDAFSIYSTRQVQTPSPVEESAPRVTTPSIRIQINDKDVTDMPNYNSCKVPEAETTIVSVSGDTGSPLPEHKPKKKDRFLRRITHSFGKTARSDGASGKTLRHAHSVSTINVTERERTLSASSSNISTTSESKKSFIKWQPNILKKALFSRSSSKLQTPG

[2] = target: T1, Drosophila MyD88 (Drosophila); test: co-IP; S2 cells co-transfected, lysed 48 h after transfection (150 mM NaCl, 50 mM Tris-HCl pH 7.4, 10% glycerol, 0.5% Triton X-100); immunoprecipitated with anti-Myc beads, immunoblot (Fig. 4b, 5f)
[3] = target: T2, Tube (Drosophila) (UniProt P22812); test: as above
T2 sequence: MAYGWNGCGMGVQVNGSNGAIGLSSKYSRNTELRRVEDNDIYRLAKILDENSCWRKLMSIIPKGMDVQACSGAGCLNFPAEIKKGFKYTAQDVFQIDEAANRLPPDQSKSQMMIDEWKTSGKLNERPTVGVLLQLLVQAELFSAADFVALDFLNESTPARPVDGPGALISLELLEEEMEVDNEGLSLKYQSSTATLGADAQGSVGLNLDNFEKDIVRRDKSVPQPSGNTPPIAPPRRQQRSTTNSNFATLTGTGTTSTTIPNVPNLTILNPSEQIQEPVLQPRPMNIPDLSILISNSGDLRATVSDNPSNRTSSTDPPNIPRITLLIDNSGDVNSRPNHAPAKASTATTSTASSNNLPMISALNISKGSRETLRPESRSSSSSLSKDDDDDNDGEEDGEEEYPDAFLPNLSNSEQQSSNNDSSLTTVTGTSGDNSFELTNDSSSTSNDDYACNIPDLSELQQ

[4] = target: T1, Drosophila MyD88 (Drosophila); test: co-IP; S2 cells co-transfected, lysed 48 h after transfection (150 mM NaCl, 50 mM Tris-HCl pH 7.4, 10% glycerol, 0.5% Triton X-100); immunoprecipitated with anti-Flag beads, immunoblot (Fig. 4a, 4c); in Fig. 4c cells pretreated 48 h with dsRNAs against tube or pelle
[5] = target: T3, Pelle (Drosophila) (UniProt Q05652); test: as above
T3 sequence: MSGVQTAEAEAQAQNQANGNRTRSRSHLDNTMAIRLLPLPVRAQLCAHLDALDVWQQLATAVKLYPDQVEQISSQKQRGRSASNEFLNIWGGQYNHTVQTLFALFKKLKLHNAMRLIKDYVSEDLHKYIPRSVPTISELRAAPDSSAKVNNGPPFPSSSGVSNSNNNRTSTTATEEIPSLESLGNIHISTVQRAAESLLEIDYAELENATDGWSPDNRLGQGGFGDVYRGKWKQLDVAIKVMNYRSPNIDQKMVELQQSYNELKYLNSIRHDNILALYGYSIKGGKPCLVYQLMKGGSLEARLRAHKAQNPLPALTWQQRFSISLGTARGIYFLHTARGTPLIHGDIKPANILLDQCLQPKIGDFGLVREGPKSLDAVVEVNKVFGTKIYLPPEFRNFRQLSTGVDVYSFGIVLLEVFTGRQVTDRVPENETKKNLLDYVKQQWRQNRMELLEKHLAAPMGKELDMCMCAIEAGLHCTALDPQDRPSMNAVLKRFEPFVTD

Measured: binding

B1: Drosophila Pellino (enzyme, UniProt O77237 1-424)
chain: MVKRTDGTESPILAEDGGDGHDKPRLRYGELVILGYNGYLPQGDRGRRRSKFVLHKRTEASGVKRSKHYIVQSPQTSKAILDANQHSISYTLSRNQAVIVEYKEDTETDMFQVGRSSESPIDFVVMDTLPGDKKDAKVMQSTISRFACRILVNRCEPAKARIFAAGFDSSRNIFLGEKATKWQDNVEIDGLTTNGVLIMHPKGSFCGGNAKCGLWRECSVGGDVFSLRESRSAQQKGQPIYDECNILQDGTLIDLCGATLLWRSAEGLQHSPTKHDLEKLIDAINAGRPQCPVGLNTLVIPRKVNIGDQVNQPYVYLNCGHVQGHHDWGQDENTGARRCPMCLELGPVVTLCMGLEPAFYVDVGAPTYAFNPCGHMATEKTVKYWANVEIPHGTNGFQAVCPFCATPLDGATGYIKLIFQDNLD
binds: [1] | [2] | [3] | [4] | [5]
